Assay results: article PMC10850148

How the values were obtained:
[1] = molecular target: T1, AtSPL5 ZnF domain (residues 60-124) (Arabidopsis thaliana) (UniProt Q9S758); experiment: SEC; Superdex 75 Increase 10/300, 20 mM Tris-HCl pH 7.5, 150 mM NaCl, 1 mM DTT; peak fractions on SDS-PAGE; both purified
T1 sequence: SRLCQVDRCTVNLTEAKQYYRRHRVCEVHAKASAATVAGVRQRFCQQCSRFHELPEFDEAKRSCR

[2] = molecular target: T2, AtSPL13 ZnF domain (residues 98-162) (Arabidopsis thaliana) (UniProt B9DI20); experiment: crystal structure; sitting-drop vapor diffusion, 18 °C; complexes purified by gel filtration; both purified
T2 sequence: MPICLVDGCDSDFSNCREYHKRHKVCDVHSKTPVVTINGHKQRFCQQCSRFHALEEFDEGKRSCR

[3] = molecular target: T1, AtSPL5 ZnF domain (residues 60-124) (Arabidopsis thaliana); experiment: as above
[4] = molecular target: GST-tagged OY-M SAP05 (onion yellows phytoplasma (OY-M; Candidatus Phytoplasma asteris)); experiment: pull-down; about 200 μg purified GST-fused protein on GST beads, equal amount of target protein, 1 h, 4 °C; 20 mM Tris-HCl, 400 mM NaCl; glutathione elution, Coomassie staining; both purified

## OY-M SAP05 (residues 33-135) (domain or fragment)
[1]
  binding: binds
[2]
  binding: binds
[3]
  binding: binds

B1: AtSPL5 ZnF domain (residues 60-124) (domain or fragment, UniProt Q9S758 60-124)
chain: SRLCQVDRCTVNLTEAKQYYRRHRVCEVHAKASAATVAGVRQRFCQQCSRFHELPEFDEAKRSCR
[4]
  binding: binds

These are yes or no findings as the source states them, for the method shown. A result given as binding can be weak or reduced; the word gives no strength.
